Literature values as cited in US20250340579A1 (priority 2022, published 2025).
At least one structure is not confirmed: it was looked up by name or label, or the drawing left a doubt.

Conditions: cited from earlier work

C/C1=C2/[N-][C@H]([C@H](CC(N)=O)[C@@]2(C)CCC(=O)NC[C@@H](C)O)[C@]2(C)N=C(/C(C)=C3N=C(/C=C4N=C1[C@@H](CCC(N)=O)C\4(C)C)[C@@H](CCC(N)=O)[C@]\3(C)CC(N)=O)[C@@H](CCC(N)=O)[C@]2(C)CC(N)=O.[Co+3] [Cobinamide]
cyanide binding affinity relative to cobalamin: about 10^10
